This is one part of the list.

For the experiment, the target named is T1, OsSMF1 (Oryza sativa, UniProt Q6ZLB0 1-436).
T1 sequence: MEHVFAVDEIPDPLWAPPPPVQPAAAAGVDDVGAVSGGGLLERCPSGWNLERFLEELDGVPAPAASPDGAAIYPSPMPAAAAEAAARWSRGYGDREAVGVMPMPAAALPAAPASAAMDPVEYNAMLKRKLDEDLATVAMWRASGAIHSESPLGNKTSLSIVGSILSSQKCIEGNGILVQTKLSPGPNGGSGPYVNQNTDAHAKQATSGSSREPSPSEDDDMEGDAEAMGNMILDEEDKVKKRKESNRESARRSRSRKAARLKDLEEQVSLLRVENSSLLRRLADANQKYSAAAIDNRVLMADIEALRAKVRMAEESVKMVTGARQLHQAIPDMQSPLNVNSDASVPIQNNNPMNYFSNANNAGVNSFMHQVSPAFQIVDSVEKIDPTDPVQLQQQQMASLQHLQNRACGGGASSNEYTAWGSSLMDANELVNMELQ
As to the kind of experiment: protein-binding microarray (RPBM); PBS, 2% BSA, 51.3 ng/ul salmon testes DNA, 50 uM zinc acetate, 200 nM TF, 25 C, 1 h; high values mean tight binding. As to conditions: protein: recombinant; tags: N-terminal polyhistidine and DsRed monomer fusion (pET32a); chain copies: 2; label: CyDye5-dUTP incorporated in the synthesized complementary strand; 3' TTTTT single-stranded linker to array surface; dsDNA, one strand shown. The gist of the method:
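Using Ni–NTA, transcription factors fused N-terminally to polyhistidine and DsRed were purified after expression in E. coli BL21-CodonPlus. These were incubated at 200 nM with a blocked, double-stranded custom Agilent array for 1 h at 25 °C in a buffer containing 50 µM zinc acetate, and the array was washed. The binding signal is per-feature fluorescence intensity (arbitrary units) on an Axon 4000B scanner.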
As for “AACGTTACCACCGCGTTTTGGTGTCATTTTCAATGCTGCTCGGAGTCACCTAGTGCAG”, the binding signal is 3170 fluorescence intensity (a.u.).

As to “AGCAGCCAGCTGTAGCACGGACTCCAAGACATAACATGTGCGGAGTCACCTAGTGCAG”, the binding signal was 3780 fluorescence intensity (a.u.).

For the sequence “GTGGTAGGTTTTGGTTTGGATGATTGGTAGTTAGCTCGTGCGGAGTCACCTAGTGCAG”, the binding signal was 3260 fluorescence intensity (a.u.).

As to “TCCAGCTCTGAATTTCACTCTGCATGCATAAGTTGCAGGACGGAGTCACCTAGTGCAG”, the binding signal was 48100 fluorescence intensity (a.u.).

Turning to “TGTCACTGCAAGGATGTAGAAAGCTGGAGCATGTGGAGTTCGGAGTCACCTAGTGCAG”, the binding signal was 3140 fluorescence intensity (a.u.).

As for “TTCTGCACTTCTGCTTCACCCCGGCTGACATTGCACACCGCGGAGTCACCTAGTGCAG”, the binding signal was 3760 fluorescence intensity (a.u.).

In the case of “ATTGTAAAACGGAGGAAGTACTATCCAAGTCATCAACCGACGGAGTCACCTAGTGCAG”, the binding signal was 6870 fluorescence intensity (a.u.).

As for “GGATGCATACGTAGACACATTTCGTCTGATTTAATCTTATCGGAGTCACCTAGTGCAG”, the binding signal was 3260 fluorescence intensity (a.u.).

As for “ACCAAAATCCGTAGGTCGTATCGTAGGGAGGGCCTGCGCCCGGAGTCACCTAGTGCAG”, the binding signal was 24700 fluorescence intensity (a.u.).

As to “TCGCAACTTCTTACTTGCTGAGAGAATCATGCGGTCCGCACGGAGTCACCTAGTGCAG”, the binding signal is 3640 fluorescence intensity (a.u.).

For “CTGAAGATCGCACTACGCATTCGTGTTGTTTCTCTAATGCCGGAGTCACCTAGTGCAG”, the binding signal was 3150 fluorescence intensity (a.u.).

With “ATAAATCTGGACATGCTCCCTGTCCAGATTTATAGTACTACGGAGTCACCTAGTGCAG”, the binding signal is 3370 fluorescence intensity (a.u.).

As to “CCCACTTCACTAGCTACTCCAGTCAGCTAATCCCTTCCCGCGGAGTCACCTAGTGCAG”, the binding signal was 3160 fluorescence intensity (a.u.).

For the sequence “AGTGGTGTCAAACCTGATGAAATTACCATGCTGAGTGTAACGGAGTCACCTAGTGCAG”, the binding signal was 3950 fluorescence intensity (a.u.).

Take “TTAAAGGTTGGGACTGCCCTAATAACCTCTCACGCCACGTCGGAGTCACCTAGTGCAG”: the binding signal was 7510 fluorescence intensity (a.u.).

On to “CGCCTCCATCCCTCCCATTCCCGAACACGTCCCCAAGGTACGGAGTCACCTAGTGCAG”, for which the binding signal is 3330 fluorescence intensity (a.u.).

For “AGTGTTGGAGTTGGAGTTGTTATGACTTATGGATTTACCTCGGAGTCACCTAGTGCAG”, the binding signal was 3320 fluorescence intensity (a.u.).

For the sequence “TCTCCTCCCCACCCGATGCACGCCATGCCAAGAGAGAAGACGGAGTCACCTAGTGCAG”, the binding signal was 3320 fluorescence intensity (a.u.).

Take “CCTCCGCCTCGTCAACCCGCGCTTGCCCTCCCACGCTGCCCGGAGTCACCTAGTGCAG”: the binding signal was 3350 fluorescence intensity (a.u.).

Turning to “ACCCGTTCTTTCTCACGCTTGTGGCGTGCATTGTCAATCACGGAGTCACCTAGTGCAG”, the binding signal was 3870 fluorescence intensity (a.u.).

Consider “ATATTCATATGACATGACACGTAAATGTCACGTAGGATATCGGAGTCACCTAGTGCAG”, for which the binding signal was 3700 fluorescence intensity (a.u.).

With “AATCTCTACAATTATAGTATTCTCTCCATTCTAAAATACACGGAGTCACCTAGTGCAG”, the binding signal is 5680 fluorescence intensity (a.u.).

For “TCAGATGACATGAGTCATACACTGGTTGTTGCCGCGGATACGGAGTCACCTAGTGCAG”, the binding signal is 10100 fluorescence intensity (a.u.).

As to “CCAACCCCGATAATAACTCTGTCATCGGATTCAAGGACAACGGAGTCACCTAGTGCAG”, the binding signal is 4030 fluorescence intensity (a.u.).

Regarding “CCAGCATCATATTTCAAGCTGAGCTGTAGTTCTCATTACTCGGAGTCACCTAGTGCAG”, the binding signal is 4640 fluorescence intensity (a.u.).

In the case of “CCATGATTAGTCCTAAGTGCTACGGTAATCCACATGTGCTCGGAGTCACCTAGTGCAG”, the binding signal is 3240 fluorescence intensity (a.u.).

As to “CCATGCCAAGATACAGGACAGCATCACAACGCATCATCGCCGGAGTCACCTAGTGCAG”, the binding signal was 3610 fluorescence intensity (a.u.).

For the sequence “ACTCCCCTGACAGAGTGGCCCCACCCAGGCGCGTACCTCCCGGAGTCACCTAGTGCAG”, the binding signal was 3240 fluorescence intensity (a.u.).

“GCCGGCTGTGTACGACGCGTGGCCTCGACGTGGCAGCGCCCGGAGTCACCTAGTGCAG”: the binding signal was 16000 fluorescence intensity (a.u.).

For the sequence “CGTCCGTGGCGTCGTCCGCCGCCGCCGCCGCCGCCGCCAGCGGAGTCACCTAGTGCAG”, the binding signal was 3340 fluorescence intensity (a.u.).

Regarding “CCACATGACAGCCACCTCCGAATGGCGCCTGTCCCTACATCGGAGTCACCTAGTGCAG”, the binding signal is 3430 fluorescence intensity (a.u.).

In the case of “CCCTCCCGAACAGTTTCTCTGAGGTGGTATTTTACGTGTACGGAGTCACCTAGTGCAG”, the binding signal is 3580 fluorescence intensity (a.u.).

On to “GCAGAACGAACAGGTTTGCTTACCACACAGCCAGCTCAGACGGAGTCACCTAGTGCAG”, for which the binding signal is 4450 fluorescence intensity (a.u.).

With “AACGGAGGCCCCATCTGTCAGGCCACGTGGAATCACCCACCGGAGTCACCTAGTGCAG”, the binding signal was 16300 fluorescence intensity (a.u.).

Turning to “GTAAGTTGAATGATGTCATATATTTAATTTTACGGTAAGTCGGAGTCACCTAGTGCAG”, the binding signal is 6940 fluorescence intensity (a.u.).

As to “CGTCGTTTCGTTTAGCATATGTTGTCACGGTACATGTATGCGGAGTCACCTAGTGCAG”, the binding signal was 4410 fluorescence intensity (a.u.).

With “GCCGGCGACGCTGCCGCCGTCACCACTACCGCTGCCGCGGCGGAGTCACCTAGTGCAG”, the binding signal is 4140 fluorescence intensity (a.u.).

With “AGGCTGGAGACATATGACCAAGCAAAGAAGGTACTTAACACGGAGTCACCTAGTGCAG”, the binding signal is 3250 fluorescence intensity (a.u.).

As to “TGCTGGACTGGTTAGCACTCGTGTCGATGACAACGAGTGGCGGAGTCACCTAGTGCAG”, the binding signal was 3860 fluorescence intensity (a.u.).

Turning to “CTATTCAGCTTGTTGCGTCGTCGGTCGATCGATCCATCCACGGAGTCACCTAGTGCAG”, the binding signal was 3180 fluorescence intensity (a.u.).

Regarding “CAATGTGCAGGTGGTGCCAACTTGCAACCCAACCGCGGGACGGAGTCACCTAGTGCAG”, the binding signal was 3500 fluorescence intensity (a.u.).

Turning to “TTTGATGCTGCTGACTCAGCATCCGCTACGCTGAAGGGAACGGAGTCACCTAGTGCAG”, the binding signal is 18500 fluorescence intensity (a.u.).

These data come from PMC7819943, “Rice protein-binding microarrays: a tool to detect cis-acting elements near promoter regions in rice”.
